Source: PubChem BioAssay AID2685 (National Center for Advancing Translational Sciences (NCATS), 2010)
Some of the results follow. Shown are side measurements of this screen, not its main read-out; they come without a call. Most of these compounds were active or inconclusive in the main read-out, so they are no random draw. Words in brackets tell the shape of the fitted curve; partial curves, single points and poor fits give uncertain potencies.

Experiment: qHTS Assay for Lipid Storage Modulators in Drosophila S3 Cells;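 for cell number change: cells counted by Cell Tracker Red CMTPX staining in the red channel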
Conditions: BODIPY lipid droplet fluorescence, 18-24 h; for cell number change: measured here: cell count max response, cells fed with added oleic acid
Summary of the method: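 Drosophila S3 cells got compounds at several concentrations plus oleic acid (400 uM solution). Laser-scanning cytometry with 488 nm excitation read lipid droplets at 500-530 nm and cells at 575-640 nm. Percent activity was relative to 20 uM Triacsin C.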

[1] = measured here: cell number channel AC50, cells fed with added oleic acid
[2] = measured here: lipid fluorescence (Fed channel) AC50, cells fed with added oleic acid

**Q.** For `COc1cccc(CN(C)C(=O)C2CCC(=O)N(Cc3cccc(F)c3)C2)c1` (stereo unspecified), which cell number change is on record?
**A.** -9.38%

**Q.** For `CN1/C(=C\C(=O)CSc2nnc(N)s2)C(C)(C)c2ccccc21`, which cell number change is on record?
**A.** -9.61%

**Q.** And the AC50 [1]?
**A.** 6.51 µM [rising, single point]

**Q.** What about the AC50 [2] of the same molecule?
**A.** 6.51 µM [rising, partial curve]

**Q.** Which cell number change does the source give for `Cc1ccccc1-n1nc2c(c1NC(=O)c1ccc(S(=O)(=O)N(C)C)cc1)CSC2` here?
**A.** -12%

**Q.** What about the AC50 [1] of the same molecule?
**A.** 0.58 µM [falling, single point]

**Q.** What does the source list for `CCOc1ccc(S(=O)(=O)NCC(c2ccc3c(c2)OCO3)N2CCN(C)CC2)cc1` (stereo unspecified)?
**A.** cell number change: -19.2%; AC50 [2]: 0.58 µM [falling, full curve]

**Q.** For `CNC(=O)c1cc(S(=O)(=O)N(C)C)ccc1Cl`, which cell number change is on record?
**A.** -16.6%

**Q.** And the AC50 [1]?
**A.** 6.51 µM [falling, single point]

**Q.** And the AC50 [2]?
**A.** 3.66 µM [falling, full curve]

**Q.** Which cell number change does the source give for `CCOC(=O)c1[nH]c(C)c(C(=O)Nc2ccc3c(c2)CCC3)c1C` here?
**A.** -17%

**Q.** And the AC50 [2]?
**A.** 3.26 µM [rising, partial curve]

**Q.** For `Cc1cccc(NC(=O)c2cccc(C(=O)Nc3cccc(C)n3)c2)n1`, which cell number change is on record?
**A.** 27.5%

**Q.** With `COCCCNC(=O)C1CC(=O)N(CCc2ccccc2)C1` (stereo unspecified) as the molecule, how does the cell number change read?
**A.** -2.81%

**Q.** What does the source list for `Oc1csc(Cc2nc(-c3ccc(-c4ccccc4)cc3)cs2)n1`?
**A.** cell number change: -24.2%; AC50 [1]: 4.11 µM [rising, single point]

**Q.** For `COc1ccc(-n2nc3c(N4CCC(C(=O)NCCc5ccco5)CC4)nnc(C)c3c2C)cc1`, which cell number change is on record?
**A.** 21.4%

**Q.** And the AC50 [2]?
**A.** 6.51 µM [rising, single point]

**Q.** Which results are given for `CC1CCC2(CC1)NC(=O)N(CC(=O)N1CCN(c3ccccc3)CC1)C2=O` (stereo unspecified)?
**A.** cell number change: -26.2%; AC50 [2]: 29.1 µM [rising, single point]

**Q.** With `CCNc1nnc(SCC(=O)c2cc(C)n(C3CC3)c2C)s1` as the molecule, how does the cell number change read?
**A.** 79.8%

**Q.** What about the AC50 [1] of the same molecule?
**A.** 5.17 µM [falling, single point]

**Q.** With `Cc1ccc(CCNC(=O)CCn2c(=O)c3cccn3c3ccc(F)cc32)cc1` as the molecule, how does the cell number change read?
**A.** 11.3%

**Q.** And the AC50 [2]?
**A.** 0.58 µM [falling, full curve]

**Q.** Which cell number change does the source give for `O=C1CCC/C(=N/NC(=O)c2cc(NS(=O)(=O)c3cccs3)cc(NS(=O)(=O)c3cccs3)c2)C1` here?
**A.** -16.3%

**Q.** For `Fc1cccc(F)c1-c1nc(-c2ccncc2)no1`, which cell number change is on record?
**A.** -18.1%

**Q.** And the AC50 [2]?
**A.** 6.51 µM [falling, single point]

**Q.** For `COc1cccc(N(C(C)=O)c2nc(C)cc(C)c2C#N)c1`, which AC50 [1] is on record?
**A.** 5.17 µM [rising, single point]

**Q.** With `Cc1cccn2c(=O)nc(SCC(=O)Nc3ccc4c(c3)OCO4)nc12` as the molecule, how does the cell number change read?
**A.** 9%

**Q.** With `COc1ccc(NC(=O)c2cccc3ccccc23)cc1` as the molecule, how does the cell number change read?
**A.** 20%

**Q.** What about the AC50 [2] of the same molecule?
**A.** 29.1 µM [rising, single point]

**Q.** With `Cc1ccc(C(=O)c2ccccc2C(=O)O)c(O)c1` as the molecule, how does the cell number change read?
**A.** 43.3%

**Q.** What about the AC50 [1] of the same molecule?
**A.** 6.51 µM [rising, single point]

**Q.** What about the AC50 [2] of the same molecule?
**A.** 6.51 µM [rising, single point]

**Q.** What does the source list for `Cc1cc(=O)[nH]c(SCc2cccc3cccnc23)n1`?
**A.** cell number change: -5.28%; AC50 [1]: 0.259 µM [falling, full curve]; AC50 [2]: 0.103 µM [falling, full curve, poor fit]

**Q.** With `COc1ccc(CCN(C)C(=O)c2oc3ccccc3c2C)cc1OC` as the molecule, how does the cell number change read?
**A.** 50.2%

**Q.** What about the AC50 [1] of the same molecule?
**A.** 13 µM [rising, partial curve]

**Q.** With `Oc1ccc(/C=N/NC(=S)Nc2cccnc2)cc1O` as the molecule, how does the cell number change read?
**A.** -3.92%

**Q.** And the AC50 [2]?
**A.** 32.6 µM [falling, single point]

**Q.** With `O=[N+]([O-])c1ccccc1/C=N/NC1=NS(=O)(=O)c2ccccc21` as the molecule, how does the cell number change read?
**A.** 20.7%

**Q.** What about the AC50 [2] of the same molecule?
**A.** 32.6 µM [rising, single point]

**Q.** With `O=C1CN(c2ccc(Cl)cc2)C2(CCCCC2)S1` as the molecule, how does the cell number change read?
**A.** 5.52%

**Q.** And the AC50 [2]?
**A.** 11.6 µM [rising, partial curve]

**Q.** Which cell number change does the source give for `CCOC(=O)CNC(=O)CN1CCCN(S(=O)(=O)c2ccc(Br)s2)CC1` here?
**A.** 23.9%

**Q.** For `CS(=O)(=O)N1CCN(c2ccc(C(=O)NC34CC5CC(CC(C5)C3)C4)cc2[N+](=O)[O-])CC1`, which cell number change is on record?
**A.** 23.1%

**Q.** And the AC50 [2]?
**A.** 9.2 µM [falling, partial curve, poor fit]

**Q.** For `C=CCNc1nc(-c2cccs2)c(CC(=O)O)s1`, which cell number change is on record?
**A.** 22.1%

**Q.** What about the AC50 [2] of the same molecule?
**A.** 6.51 µM [rising, full curve]

**Q.** For `O=C(O)CN(Cc1ccccc1)S(=O)(=O)c1ccc2c(c1)OCCO2`, which cell number change is on record?
**A.** -5.66%

**Q.** And the AC50 [2]?
**A.** 0.0651 µM [falling, full curve, poor fit]

**Q.** For `CC1(C)SCC2C(=O)N3C(CSC3(C)C)C(=O)N21` (stereo unspecified), which cell number change is on record?
**A.** 14.7%

**Q.** And the AC50 [2]?
**A.** 3.66 µM [rising, single point]

**Q.** Which cell number change does the source give for `Nc1nc(N2CCCCC2)nc(N2CCCCC2)n1` here?
**A.** 14.7%

**Q.** With `COCCN(C(=O)COC(=O)c1ccc(C)s1)c1c(N)n(Cc2ccccc2)c(=O)[nH]c1=O` as the molecule, how does the cell number change read?
**A.** 82.8%

**Q.** What about the AC50 [1] of the same molecule?
**A.** 16.4 µM [rising, single point]

**Q.** With `COc1ccc2nc(N3CCCC3)[nH]c2c1` as the molecule, how does the cell number change read?
**A.** -0.491%

**Q.** For `COc1ccc(Cc2[nH]n3c(=O)c(Cl)c(C)nc3c2-c2ccccc2)cc1`, which cell number change is on record?
**A.** -20.7%

**Q.** What about the AC50 [1] of the same molecule?
**A.** 0.731 µM [rising, single point]

**Q.** What about the AC50 [2] of the same molecule?
**A.** 29.1 µM [falling, single point]

**Q.** With `Cc1cc(C)cc(NC(=S)N2CCN(S(=O)(=O)c3ccccc3)CC2)c1` as the molecule, how does the cell number change read?
**A.** 3.47%

**Q.** For `Cc1ccc(S(=O)(=O)NCc2cccnc2)cc1C(=O)N1CCCC1`, which cell number change is on record?
**A.** -10.5%

**Q.** For `COc1ccc(-c2csc(NC(=O)CSCC(=O)Nc3cc(C)on3)n2)cc1`, which cell number change is on record?
**A.** 11.5%

**Q.** And the AC50 [2]?
**A.** 10.3 µM [falling, partial curve, poor fit]

**Q.** Which cell number change does the source give for `Cc1cc(C)c(N=C2C(=O)Nc3ccccc32)c(C)c1` here?
**A.** -34%

**Q.** And the AC50 [1]?
**A.** 29.1 µM [falling, single point]

**Q.** What about the AC50 [2] of the same molecule?
**A.** 16.4 µM [falling, single point]

**Q.** Which cell number change does the source give for `C=CCn1c(SCC(=O)c2[nH]c(C)c(C(=O)OCC)c2C)nc2scc(-c3ccccc3)c2c1=O` here?
**A.** 17%

**Q.** What does the source list for `COc1cccc(CNC(=O)CCS(=O)(=O)c2cc3c(cc2C)NC(=O)CO3)c1`?
**A.** cell number change: 13.3%; AC50 [2]: 0.00517 µM [rising, full curve, poor fit]

**Q.** With `CC(=O)C1=C(C)Nc2ncnn2C1c1cccc(O)c1` (stereo unspecified) as the molecule, how does the cell number change read?
**A.** 27.8%

**Q.** What about the AC50 [2] of the same molecule?
**A.** 0.58 µM [rising, single point]

**Q.** For `CCOC(=O)C(=Cc1ccc(OCc2ccc([N+](=O)[O-])cc2)c(OC)c1)C(=O)OCC`, which AC50 [1] is on record?
**A.** 2.59 µM [rising, partial curve, poor fit]

**Q.** What about the AC50 [2] of the same molecule?
**A.** 2.06 µM [rising, partial curve]
